Test [1] has as its target T1, TAB2 (human (endogenous in HNSCC cells)) (UniProt Q9NYJ8).
T1 sequence: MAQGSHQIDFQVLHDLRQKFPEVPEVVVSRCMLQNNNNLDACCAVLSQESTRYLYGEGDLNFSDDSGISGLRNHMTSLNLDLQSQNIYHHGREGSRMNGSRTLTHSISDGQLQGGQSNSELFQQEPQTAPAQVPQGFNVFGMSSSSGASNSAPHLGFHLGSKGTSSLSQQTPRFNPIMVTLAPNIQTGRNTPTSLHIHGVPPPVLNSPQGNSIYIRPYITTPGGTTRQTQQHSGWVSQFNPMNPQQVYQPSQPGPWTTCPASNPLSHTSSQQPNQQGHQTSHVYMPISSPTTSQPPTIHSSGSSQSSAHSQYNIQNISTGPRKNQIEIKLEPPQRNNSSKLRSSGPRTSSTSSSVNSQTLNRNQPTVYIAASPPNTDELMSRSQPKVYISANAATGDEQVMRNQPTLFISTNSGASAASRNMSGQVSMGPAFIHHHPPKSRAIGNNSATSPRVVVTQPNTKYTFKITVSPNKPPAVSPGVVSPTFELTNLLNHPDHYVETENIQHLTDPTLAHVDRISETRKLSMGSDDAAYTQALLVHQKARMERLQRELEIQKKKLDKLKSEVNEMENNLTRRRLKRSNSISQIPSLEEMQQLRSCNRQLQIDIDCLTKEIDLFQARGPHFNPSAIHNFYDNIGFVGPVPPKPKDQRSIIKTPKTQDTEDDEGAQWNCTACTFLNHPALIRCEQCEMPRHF
The experiment in a line: co-IP; HNSCC cell lysates incubated with anti-USP25 antibody (or anti-TAB2 antibody, Fig. 6B) or IgG, washed with lysis buffer, bead-bound proteins immunoblotted; endogenous proteins.

Amino acid sequences for entries named in this document (tags omitted).
UniProt Q9UHP3: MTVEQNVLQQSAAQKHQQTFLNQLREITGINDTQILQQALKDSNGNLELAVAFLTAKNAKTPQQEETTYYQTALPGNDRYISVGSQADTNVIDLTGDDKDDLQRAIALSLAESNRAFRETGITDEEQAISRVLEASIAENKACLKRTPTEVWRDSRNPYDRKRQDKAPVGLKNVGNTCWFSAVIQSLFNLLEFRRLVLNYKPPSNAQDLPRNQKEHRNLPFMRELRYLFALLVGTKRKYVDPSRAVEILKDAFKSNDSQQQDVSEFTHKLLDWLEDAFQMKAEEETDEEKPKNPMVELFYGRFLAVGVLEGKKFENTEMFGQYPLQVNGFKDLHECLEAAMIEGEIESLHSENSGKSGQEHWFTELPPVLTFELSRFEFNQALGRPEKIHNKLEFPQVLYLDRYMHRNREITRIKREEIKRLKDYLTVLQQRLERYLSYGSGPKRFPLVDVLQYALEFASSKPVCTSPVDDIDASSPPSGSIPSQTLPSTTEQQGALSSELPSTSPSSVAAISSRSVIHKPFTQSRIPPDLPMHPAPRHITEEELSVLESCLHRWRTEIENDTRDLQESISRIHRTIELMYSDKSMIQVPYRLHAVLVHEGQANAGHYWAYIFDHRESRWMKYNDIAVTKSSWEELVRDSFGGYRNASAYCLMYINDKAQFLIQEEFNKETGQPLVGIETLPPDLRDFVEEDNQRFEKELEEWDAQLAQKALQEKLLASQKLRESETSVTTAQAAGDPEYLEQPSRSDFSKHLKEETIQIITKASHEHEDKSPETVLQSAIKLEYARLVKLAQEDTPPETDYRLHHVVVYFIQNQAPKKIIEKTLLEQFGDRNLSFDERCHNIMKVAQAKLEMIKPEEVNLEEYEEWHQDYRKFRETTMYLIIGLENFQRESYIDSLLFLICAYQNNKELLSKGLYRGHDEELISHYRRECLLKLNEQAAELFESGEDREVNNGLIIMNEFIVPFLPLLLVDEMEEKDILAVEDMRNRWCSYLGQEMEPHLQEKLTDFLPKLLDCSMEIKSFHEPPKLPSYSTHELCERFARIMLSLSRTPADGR

The target in test [2] is ubiquitin specific peptidase 25 (USP25) (human (endogenous in HNSCC cells)) (UniProt Q9UHP3). Described as above.

No constants are given. Whether binding was seen depends on the method and setting. Binding seen in cells or lysates may run through a third protein. Some binding calls cover weakened binding; strength is not graded here.

Take “ubiquitin specific peptidase 25 (USP25) (from UniProt Q9UHP3 1-1055) (enzyme)”: the binding entry in test [1] is recorded as “binds”.

B1: TAB3 (protein, UniProt Q8N5C8 1-712)
chain: MAQSSPQLDIQVLHDLRQRFPEIPEGVVSQCMLQNNNNLEACCRALSQESSKYLYMEYHSPDDNRMNRNRLLHINLGIHSPSSYHPGDGAQLNGGRTLVHSSSDGHIDPQHAAGKQLICLVQEPHSAPAVVAATPNYNPFFMNEQNRSAATPPSQPPQQPSSMQTGMNPSAMQGPSPPPPPPSYMHIPRYSTNPITVTVSQNLPSGQTVPRALQILPQIPSNLYGSPGSIYIRQTSQSSSGRQTPQSTPWQSSPQGPVPHYSQRPLPVYPHQQNYQPSQYSPKQQQIPQSAYHSPPPSQCPSPFSSPQHQVQPSQLGHIFMPPSPSTTPPHPYQQGPPSYQKQGSHSVAYLPYTASSLSKGSMKKIEITVEPSQRPGTAINRSPSPISNQPSPRNQHSLYTATTPPSSSPSRGISSQPKPPFSVNPVYITYTQPTGPSCTPSPSPRVIPNPTTVFKITVGRATTENLLNLVDQEERSAAPEPIQPISVIPGSGGEKGSHKYQRSSSSGSDDYAYTQALLLHQRARMERLAKQLKLEKEELERLKSEVNGMEHDLMQRRLRRVSCTTAIPTPEEMTRLRSMNRQLQINVDCTLKEVDLLQSRGNFDPKAMNNFYDNIEPGPVVPPKPSKKDSSDPCTIERKARRISVTSKVQADIHDTQAAAADEHRTGSTQSPRTQPRDEDYEGAPWNCDSCTFLNHPALNRCEQCEMPRYT
Take B1: the binding entry in test [2] is given as “no binding”.

B2: TAK1 (protein, UniProt O43318 1-606)
chain: MSTASAASSSSSSSAGEMIEAPSQVLNFEEIDYKEIEVEEVVGRGAFGVVCKAKWRAKDVAIKQIESESERKAFIVELRQLSRVNHPNIVKLYGACLNPVCLVMEYAEGGSLYNVLHGAEPLPYYTAAHAMSWCLQCSQGVAYLHSMQPKALIHRDLKPPNLLLVAGGTVLKICDFGTACDIQTHMTNNKGSAAWMAPEVFEGSNYSEKCDVFSWGIILWEVITRRKPFDEIGGPAFRIMWAVHNGTRPPLIKNLPKPIESLMTRCWSKDPSQRPSMEEIVKIMTHLMRYFPGADEPLQYPCQYSDEGQSNSATSTGSFMDIASTNTSNKSDTNMEQVPATNDTIKRLESKLLKNQAKQQSESGRLSLGASRGSSVESLPPTSEGKRMSADMSEIEARIAATTAYSKPKRGHRKTASFGNILDVPEIVISGNGQPRRRSIQDLTVTGTEPGQVSSRSSSPSVRMITTSGPTSEKPTRSHPWTPDDSTDTNGSDNSIPMAYLTLDHQLQPLAPCPNSKESMAVFEQHCKMAQEYMKVQTEIALLLQRKQELVAELDQDEKDQQNTSRLVQEHKKLLDENKSLSTYYQQCKKQLEVIRSQQQKRQGTS
B2: the binding result in test [2] was “no binding”.

B3: TAB2 (protein, UniProt Q9NYJ8 1-693)
chain: MAQGSHQIDFQVLHDLRQKFPEVPEVVVSRCMLQNNNNLDACCAVLSQESTRYLYGEGDLNFSDDSGISGLRNHMTSLNLDLQSQNIYHHGREGSRMNGSRTLTHSISDGQLQGGQSNSELFQQEPQTAPAQVPQGFNVFGMSSSSGASNSAPHLGFHLGSKGTSSLSQQTPRFNPIMVTLAPNIQTGRNTPTSLHIHGVPPPVLNSPQGNSIYIRPYITTPGGTTRQTQQHSGWVSQFNPMNPQQVYQPSQPGPWTTCPASNPLSHTSSQQPNQQGHQTSHVYMPISSPTTSQPPTIHSSGSSQSSAHSQYNIQNISTGPRKNQIEIKLEPPQRNNSSKLRSSGPRTSSTSSSVNSQTLNRNQPTVYIAASPPNTDELMSRSQPKVYISANAATGDEQVMRNQPTLFISTNSGASAASRNMSGQVSMGPAFIHHHPPKSRAIGNNSATSPRVVVTQPNTKYTFKITVSPNKPPAVSPGVVSPTFELTNLLNHPDHYVETENIQHLTDPTLAHVDRISETRKLSMGSDDAAYTQALLVHQKARMERLQRELEIQKKKLDKLKSEVNEMENNLTRRRLKRSNSISQIPSLEEMQQLRSCNRQLQIDIDCLTKEIDLFQARGPHFNPSAIHNFYDNIGFVGPVPPKPKDQRSIIKTPKTQDTEDDEGAQWNCTACTFLNHPALIRCEQCEMPRHF
As for B3, the binding result in test [2] is “binds”.

Values taken from publication PMC12811241.
